From US10828315B2 (Madrigal Pharmaceuticals, Inc., priority 2013, dated 2020)

Test: Artificial membrane permeability assay (PAMPA)

## NS(=O)(=O)c1cc(C(=O)O)c(NCc2ccco2)cc1Cl [Furosemide]
Incubation 5 h, first table
  Mass Retention: 7.53%
Same protocol, second table
  Mass Retention: 2.63%
